Results are given in words; binding and its absence hold for the method and conditions named. In cells and extracts the contact can be indirect. Some binding calls cover weakened binding; strength is not graded here.
Experiments:
Assay in all cases: co-IP; proteins from rat hippocampal tissue incubated overnight at 4 °C in RIA buffer (200 mM NaCl, 10 mM EDTA, 10 mM Na2HPO4, 0.5% NP-40) plus 0.1% SDS with primary antibodies; magnetic beads A; Western blot
[1] = molecular target: myosin Va (rat (endogenous in hippocampal tissue)) (UniProt Q9QYF3)
[2] = molecular target: Rabphilin-3A (rat (endogenous in hippocampal tissue)) (UniProt P47709)
[3] = molecular target: GluA1 subunit of AMPA receptors (rat (endogenous in hippocampal tissue)) (UniProt P19490)

Chains of the proteins cited; added tags and fusions are not shown. Residues count along the entry.
UniProt Q9QYF3: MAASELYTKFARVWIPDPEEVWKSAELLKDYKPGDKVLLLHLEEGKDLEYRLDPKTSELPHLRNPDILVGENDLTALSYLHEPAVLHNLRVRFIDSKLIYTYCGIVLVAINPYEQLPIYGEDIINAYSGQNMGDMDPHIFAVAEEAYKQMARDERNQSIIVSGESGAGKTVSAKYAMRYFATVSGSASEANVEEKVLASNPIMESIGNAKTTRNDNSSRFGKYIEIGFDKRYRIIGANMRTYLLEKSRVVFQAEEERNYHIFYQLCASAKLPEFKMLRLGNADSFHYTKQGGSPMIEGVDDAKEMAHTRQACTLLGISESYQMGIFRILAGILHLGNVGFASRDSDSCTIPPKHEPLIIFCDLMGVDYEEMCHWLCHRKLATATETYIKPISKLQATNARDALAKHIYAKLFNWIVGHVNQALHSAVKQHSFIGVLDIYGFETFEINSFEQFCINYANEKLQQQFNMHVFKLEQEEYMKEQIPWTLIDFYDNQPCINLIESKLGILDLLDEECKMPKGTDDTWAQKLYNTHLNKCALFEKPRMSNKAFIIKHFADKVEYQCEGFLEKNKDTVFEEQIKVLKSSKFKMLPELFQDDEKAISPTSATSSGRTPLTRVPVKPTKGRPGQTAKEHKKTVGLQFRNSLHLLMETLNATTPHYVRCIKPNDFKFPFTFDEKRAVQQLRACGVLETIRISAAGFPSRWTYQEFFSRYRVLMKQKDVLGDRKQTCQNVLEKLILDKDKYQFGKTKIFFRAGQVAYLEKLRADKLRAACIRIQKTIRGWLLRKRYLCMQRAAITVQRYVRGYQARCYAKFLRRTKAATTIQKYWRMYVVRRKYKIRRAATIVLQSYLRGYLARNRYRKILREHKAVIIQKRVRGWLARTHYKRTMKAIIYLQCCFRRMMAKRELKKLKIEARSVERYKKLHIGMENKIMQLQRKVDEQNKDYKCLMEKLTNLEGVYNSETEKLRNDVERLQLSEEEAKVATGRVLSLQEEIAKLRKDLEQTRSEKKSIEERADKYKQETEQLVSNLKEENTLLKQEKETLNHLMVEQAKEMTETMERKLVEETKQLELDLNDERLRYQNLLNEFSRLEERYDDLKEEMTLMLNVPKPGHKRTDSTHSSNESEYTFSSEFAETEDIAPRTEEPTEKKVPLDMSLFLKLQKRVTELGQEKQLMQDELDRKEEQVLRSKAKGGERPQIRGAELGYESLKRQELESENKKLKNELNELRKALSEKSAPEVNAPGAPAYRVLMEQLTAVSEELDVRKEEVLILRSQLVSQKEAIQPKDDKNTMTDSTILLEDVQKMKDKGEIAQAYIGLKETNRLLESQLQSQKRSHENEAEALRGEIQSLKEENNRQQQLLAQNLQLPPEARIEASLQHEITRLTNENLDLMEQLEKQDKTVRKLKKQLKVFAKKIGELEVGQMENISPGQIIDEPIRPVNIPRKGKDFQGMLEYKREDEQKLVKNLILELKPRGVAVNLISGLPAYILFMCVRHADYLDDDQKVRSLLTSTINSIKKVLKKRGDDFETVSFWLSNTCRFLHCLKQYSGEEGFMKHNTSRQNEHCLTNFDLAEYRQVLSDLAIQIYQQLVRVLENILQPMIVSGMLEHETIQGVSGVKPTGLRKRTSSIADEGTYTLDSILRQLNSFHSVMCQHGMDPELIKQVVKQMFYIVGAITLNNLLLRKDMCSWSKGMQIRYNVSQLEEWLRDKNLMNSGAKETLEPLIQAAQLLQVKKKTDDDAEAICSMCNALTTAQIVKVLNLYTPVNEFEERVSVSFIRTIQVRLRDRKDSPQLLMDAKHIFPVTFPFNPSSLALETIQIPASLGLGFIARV
UniProt P47709: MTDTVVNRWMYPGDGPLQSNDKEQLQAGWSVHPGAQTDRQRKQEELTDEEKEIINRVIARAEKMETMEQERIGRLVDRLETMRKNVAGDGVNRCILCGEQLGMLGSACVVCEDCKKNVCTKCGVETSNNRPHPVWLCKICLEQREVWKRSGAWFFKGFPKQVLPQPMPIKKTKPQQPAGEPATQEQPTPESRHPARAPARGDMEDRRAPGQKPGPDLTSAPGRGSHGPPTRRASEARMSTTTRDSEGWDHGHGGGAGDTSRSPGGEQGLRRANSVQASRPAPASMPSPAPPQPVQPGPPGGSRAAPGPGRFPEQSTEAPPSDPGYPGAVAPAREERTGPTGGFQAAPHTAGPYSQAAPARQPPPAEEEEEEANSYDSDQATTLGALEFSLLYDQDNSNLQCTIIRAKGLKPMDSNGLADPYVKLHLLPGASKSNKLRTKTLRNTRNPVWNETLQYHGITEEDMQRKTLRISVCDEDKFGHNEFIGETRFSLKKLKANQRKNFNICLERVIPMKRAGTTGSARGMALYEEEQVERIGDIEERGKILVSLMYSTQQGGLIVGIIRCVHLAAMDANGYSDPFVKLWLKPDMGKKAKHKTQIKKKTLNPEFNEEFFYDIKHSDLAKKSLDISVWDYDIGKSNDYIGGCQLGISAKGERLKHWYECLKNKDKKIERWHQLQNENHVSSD
UniProt P19490, residues 19-907: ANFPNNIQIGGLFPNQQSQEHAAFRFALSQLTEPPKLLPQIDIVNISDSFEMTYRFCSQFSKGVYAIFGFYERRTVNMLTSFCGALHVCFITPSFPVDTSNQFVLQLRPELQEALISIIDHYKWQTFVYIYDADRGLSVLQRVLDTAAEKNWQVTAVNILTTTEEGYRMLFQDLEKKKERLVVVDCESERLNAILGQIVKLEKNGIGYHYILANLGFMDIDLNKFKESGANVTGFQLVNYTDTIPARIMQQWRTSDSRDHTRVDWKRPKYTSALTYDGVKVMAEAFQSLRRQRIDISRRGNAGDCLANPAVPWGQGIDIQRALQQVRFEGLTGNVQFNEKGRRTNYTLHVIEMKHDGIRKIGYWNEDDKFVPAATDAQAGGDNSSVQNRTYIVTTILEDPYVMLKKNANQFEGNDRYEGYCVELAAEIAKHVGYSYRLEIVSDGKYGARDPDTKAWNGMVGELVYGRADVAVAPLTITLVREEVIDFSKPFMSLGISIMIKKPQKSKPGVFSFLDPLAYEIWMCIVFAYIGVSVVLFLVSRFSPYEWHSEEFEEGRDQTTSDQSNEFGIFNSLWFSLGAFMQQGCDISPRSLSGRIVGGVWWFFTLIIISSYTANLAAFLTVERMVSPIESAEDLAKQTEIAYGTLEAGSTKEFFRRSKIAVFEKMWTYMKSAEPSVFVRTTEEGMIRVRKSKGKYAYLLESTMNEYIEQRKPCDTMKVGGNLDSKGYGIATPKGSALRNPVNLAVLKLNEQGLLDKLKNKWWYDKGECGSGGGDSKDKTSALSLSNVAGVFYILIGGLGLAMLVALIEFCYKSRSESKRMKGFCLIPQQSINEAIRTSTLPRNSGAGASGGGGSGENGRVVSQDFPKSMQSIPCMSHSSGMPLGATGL

Substance	binding [1]	binding [2]	binding [3]
GluA1 subunit of AMPA receptors (from UniProt P19490 19-907)	binds	binds	
Rabphilin-3A (from UniProt P47709 1-684)	binds		binds
myosin Va (from UniProt Q9QYF3 1-1828)		binds	binds

— publication PMC9139176
